Values quoted from earlier work as cited in patent US20060183719A1 (priority 2005, published 2006).
Some of these results come from one statement about several compounds together.

Settings: administered orally

| Compound | absorption |
| --- | --- |
| CN(C)[C@@H]1C(O)=C(C(N)=O)C(=O)[C@@]2(O)C(O)=C3C(=O)c4c(O)ccc(Cl)c4[C@@H](O)[C@H]3C[C@@H]12 [demeclocycline] | 60-80% |
| oxycycline | 60-80% |
